Patent publication US20090111753A1, “Nogo-A Polypeptide Fragments, Variant Nogo Receptor-1 Polypeptides, and Uses Thereof” (Yale University, priority 2004, published 2009)
Positions count from the first letter of the chain named. Numbers in names are those of the source. No constants are given. Whether binding was seen depends on the method and setting. Some entries that bind do so weakly or less than the wild type. One block for each binder: values may come before it.

Columns and labels:
Test in all cases: AP-ligand binding, COS-7
[1] = biological target: T1, human NgR1 alanine mutant 108 (human) (UniProt Q9BZR6)
T1 sequence: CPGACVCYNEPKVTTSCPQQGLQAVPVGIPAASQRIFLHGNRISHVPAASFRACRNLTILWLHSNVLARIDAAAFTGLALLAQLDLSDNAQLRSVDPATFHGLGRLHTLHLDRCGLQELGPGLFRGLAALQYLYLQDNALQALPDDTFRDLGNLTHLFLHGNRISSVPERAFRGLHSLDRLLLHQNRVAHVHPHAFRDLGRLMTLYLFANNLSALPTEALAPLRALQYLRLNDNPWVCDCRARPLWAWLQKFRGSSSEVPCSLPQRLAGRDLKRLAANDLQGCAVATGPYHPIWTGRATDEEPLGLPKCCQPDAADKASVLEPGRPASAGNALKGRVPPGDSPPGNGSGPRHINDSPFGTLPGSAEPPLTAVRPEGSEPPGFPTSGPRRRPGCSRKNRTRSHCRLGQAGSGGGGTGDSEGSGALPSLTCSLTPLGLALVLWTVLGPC

[2] = biological target: T2, human NgR1 alanine mutant 151 (human) (UniProt Q9BZR6)
T2 sequence: T1 sequence with A82E, R125A

[3] = biological target: T3, human NgR1 alanine mutant 171, 172, 175, 176 (human) (UniProt Q9BZR6)
T3 sequence: T1 sequence with A82E, D145A, D146A, R149A, D150A

[4] = biological target: T4, human NgR1 alanine mutant 267, 269 (human) (UniProt Q9BZR6)
T4 sequence: T1 sequence with A82E, R241A, R243A

[5] = biological target: T5, human NgR1 alanine mutant 277, 279 (human) (UniProt Q9BZR6)
T5 sequence: T1 sequence with A82E, K251A, R253A

[6] = biological target: T6, human NgR1 alanine mutant 95, 97 (human) (UniProt Q9BZR6)
T6 sequence: T1 sequence with R69A, D71A, A82E

binding [1]: binds
binding [2]: binds
binding [3]: binds
binding [4]: binds
binding [5]: binds
binding [6]: binds
B1: AP-Nogo-66 (ligand, UniProt Q9NQC3 1055-1120, looked up)
chain: RIYKGVIQAIQKSDEGHPFRAYLESEVAISEELVQKYSNSALGHVNCTIKELRRLFLVDDLVDSLK
notes: domain: Nogo-66; construct described elsewhere (Fournier 2001); also called AP-Ng66; Ng66; not shown: alkaline phosphatase (AP); construct described elsewhere

binding [1]: binds
binding [2]: binds
binding [3]: binds
binding [4]: binds
binding [5]: binds
binding [6]: binds
B2: AP-fused Amino-Nogo fragment B4C (a.a. 950-1018) (ligand)
chain: LLPPDVSALATQAEIESIVKPKVLVKEAEKKLPSDTEKEDRSPSAIFSAELSKTSVVDLLYWRDIKKTG
notes: also called AmNg B4C; AP-B4C; not shown: alkaline phosphatase (AP), vector pcAP6
